# Experimental data taken from the supplement of paper PMC3334620.
# Whole data set: some 33,000 sequences, median “E-score (-0.5 to 0.5)” near -0.0059, cut for the highest 2% near 0.26. The list shows a part of the results.
# Biological target: T1, Cin5 (UniProt P40917)
# T1 sequence: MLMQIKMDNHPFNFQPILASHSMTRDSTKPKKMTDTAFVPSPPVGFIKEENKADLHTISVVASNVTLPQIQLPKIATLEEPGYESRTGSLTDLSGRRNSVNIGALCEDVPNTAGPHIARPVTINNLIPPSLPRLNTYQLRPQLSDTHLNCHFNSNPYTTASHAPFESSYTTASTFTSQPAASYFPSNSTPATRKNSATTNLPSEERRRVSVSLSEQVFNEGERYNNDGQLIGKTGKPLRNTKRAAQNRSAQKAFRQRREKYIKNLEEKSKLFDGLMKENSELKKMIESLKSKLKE
# Test: PBM E-score (8-mer binding enrichment) (E-score (-0.5 to 0.5)); higher = stronger / more preferred TF binding
# Settings: protein concentration: 100 nM; construct: GST-full length
# In short: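 Using PURExpress in vitro transcription/translation, GST-tagged yeast transcription factors were made in full-length or DNA-binding-domain form. These were applied at about 100-200 nM to double-stranded universal all-10-mer Agilent arrays, and bound protein was detected with fluorescent anti-GST. Scans were normalised with masliner before the Universal PBM Analysis Suite assigned E-scores to ungapped eight-base words pooled with their reverse complements.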
row,Sequence,PBM E-score
1,CGCAGTTA,0.109
2,ACTGGTCT,-0.136
3,ATGAGCAT,0.0863
4,CCGCCTGA,0.00219
5,AACCGACC,0.0873
6,CAACGCAG,-0.128
7,ATGCTGAG,-0.0252
8,GAATAACC,0.0485
9,GCGCACCC,-0.102
10,GCCTGAAA,0.0109
11,ACACACGG,-0.205
12,CGTCGGAG,-0.105
13,GGGCGCCC,-0.0661
14,CACGTCTC,-0.189
15,ATAAACCG,0.121
16,CTAATGCA,0.174
17,GAACGTGA,0.0409
18,GCCTCGTA,0.00677
19,ACCCTTTC,-0.161
20,ACAGACGC,-0.108
21,CACCTGCA,-0.0793
22,GTAGCCGA,-0.171
23,GACGCTCC,-0.148
24,CATGCTAA,0.0262
25,ATTGTAGC,0.0104

row,Sequence,PBM E-score
1,CATATCAC,0.136
2,AGGTATCA,-0.0317
3,ATCTATCC,-0.00665
4,CCCACTCA,-0.0571
5,CCTAGTTA,-0.0425
6,CATCGTAG,-0.196
7,ACGCTTAC,0.269
8,GGACCAAA,0.0582
9,ACGAGTCC,-0.0992
10,GGCCATAC,0.056
11,ACTAAGAA,0.177
12,AGGAACAA,-0.0886
13,TACATTGA,0.118
14,AGTTCGGC,-0.0604
15,TATGAGGA,-0.00288
16,ACGTTACG,-0.0359
17,TATCCCAA,0.0298
18,GTAACCCA,0.234
19,AGACTTAG,-0.233
20,ACGACACG,0.0762
21,GCACAAGA,0.0328
22,TCCCGAGA,-0.116
23,CAAGGTCC,-0.159
24,AGCTTTCG,-0.238
25,ACCAACGA,-0.055

row,Sequence,PBM E-score
1,GTCACCAC,-0.1
2,CTTTGGAC,-0.0618
3,CAAGCCTA,-0.16
4,ATTCTCGG,0.175
5,CACTAGCG,-0.108
6,CCAGGGTA,-0.144
7,GCGGGCTA,-0.0859
8,GATTACTA,0.387
9,AAACCCCG,0.0507
10,ACGAGCAT,-0.00763
11,CCGTACTA,0.159
12,TCGACGCA,-0.0216
13,CATTAAGC,0.0535
14,CTGTCATC,-0.0114
15,GTATATAC,0.104
16,AAACTCCG,-0.0418
17,ACCTTTAA,-0.0476
18,AAATGAGG,-0.0737
19,ATGTCGAC,0.198
20,GCCTCGCC,-0.232
21,GTCATGAA,0.115
22,AATGTGAT,0.201
23,CTCGTCCA,-0.0332
24,AAGATCGA,0.13
25,AGGGTGTA,-0.0304

row,Sequence,PBM E-score
1,GATTCACC,-0.0833
2,GTCGACCA,-0.0947
3,AGCGCACC,-0.0753
4,ACGGTCGC,-0.178
5,AGGCTACT,-0.0774
6,AAAGGACC,-0.118
7,CTCTGAGC,-0.2
8,AACACTCG,0.144
9,GGTCCACA,-0.155
10,CTGGCCCC,-0.17
11,CTACTGGC,-0.128
12,CTCCAGCA,-0.141
13,ATGACCAA,0.0618
14,AATAGCGC,0.156
15,AGTTAAAA,0.207
16,GCCCCTAC,-0.0805
17,GGATAGCC,-0.0211
18,ACAAGGTA,0.0342
19,CCGAACAC,0.0281
20,GTAGTCAA,0.0357
21,AAGTGTTC,0.119
22,CGGGAACC,-0.199
23,AAGTATGA,0.192
24,AAGAGAAT,0.261
25,ATTGCTAC,0.00128

row,Sequence,PBM E-score
1,TCGTAAGA,-0.00999
2,GTGTAACA,0.00347
3,GGCTTCAA,-0.199
4,CCGTAGTA,-0.061
5,ATACTGAT,0.283
6,GCTGAACA,0.0703
7,CCTCGAAG,0.0156
8,ATAAAGTC,0.113
9,AGGTTATA,-0.0535
10,AGAAGGCT,-0.196
11,GGGAGTGA,-0.0411
12,CAGCGCTA,0.0318
13,TACGGTAA,0.174
14,CCTGACCC,-0.117
15,CTAACCAA,0.0775
16,CAGCCGGC,0.0236
17,CAGGGTAC,-0.2
18,AACCCGAT,0.258
19,GCGCGCGC,0.306
20,GGCCCTAC,-0.296
21,GACCCCTC,-0.135
22,GACCACAC,-0.138
23,CCTGAAAG,-0.152
24,AGGCAACG,0.00342
25,GATTGGTA,0.125

# Exported tab-delimited: part of the list above.
row	Sequence	PBM E-score
16	GCCCCTAC	-0.0805
17	GGATAGCC	-0.0211
18	ACAAGGTA	0.0342
19	CCGAACAC	0.0281
20	GTAGTCAA	0.0357
21	AAGTGTTC	0.119
22	CGGGAACC	-0.199
23	AAGTATGA	0.192
24	AAGAGAAT	0.261
25	ATTGCTAC	0.00128
1	TCGTAAGA	-0.00999
2	GTGTAACA	0.00347
3	GGCTTCAA	-0.199
4	CCGTAGTA	-0.061
5	ATACTGAT	0.283
6	GCTGAACA	0.0703
7	CCTCGAAG	0.0156
8	ATAAAGTC	0.113
9	AGGTTATA	-0.0535
10	AGAAGGCT	-0.196
11	GGGAGTGA	-0.0411
12	CAGCGCTA	0.0318
13	TACGGTAA	0.174
14	CCTGACCC	-0.117
15	CTAACCAA	0.0775
16	CAGCCGGC	0.0236
17	CAGGGTAC	-0.2
18	AACCCGAT	0.258
19	GCGCGCGC	0.306
20	GGCCCTAC	-0.296
21	GACCCCTC	-0.135
22	GACCACAC	-0.138

# Further entries follow:

row,Sequence,PBM E-score
1,CTTTGTGA,-0.0268
2,CCTTCTCA,-0.0495
3,CGGAAGTC,0.00808
4,AGCTTTGA,-0.00168
5,AAAGAGTA,-0.0619
6,ACCCGGCC,-0.326
7,AATATATT,0.363
8,CTTGAACC,-0.0425
9,TCACAGAA,-0.0304
10,GACAGCCA,-0.0393
11,CCATAAAA,0.0525
12,ACAATATG,0.154
13,ACATCACC,-0.0163
14,AACGCCTG,-0.197
15,CACTTACG,0.112
16,GCCAGTGA,-0.124
17,CGCTGAAC,-0.0208
18,AACGACGC,-0.148
19,ACTCTCCA,-0.067
20,ATCCCTTC,-0.0251
21,CGCCCAAA,-0.0271
22,CAACCCGC,0.0659
23,AATTCTTG,0.09
24,AGTCGCAC,-0.075
25,AGTGAGTG,-0.0867

row,Sequence,PBM E-score
1,CGATTCCC,0.18
2,AGCCGCCC,0.00886
3,CTATACTC,0.079
4,CTCGCGGC,-0.148
5,CGTGTAGC,-0.124
6,CCGAACAG,-0.076
7,ACTCTAAC,0.0515
8,GATGAATC,0.161
9,ACAAAATA,0.215
10,CTTTCGGA,-0.125
11,GAGCATTA,0.074
12,AGGAACGC,-0.131
13,ACGTGCAC,-0.0416
14,GCCTGAGC,-0.245
15,ACTACGGG,-0.0352
16,GTGGCAAA,-0.0607
17,ATGGGGGG,-0.365
18,CTCTCTAA,-0.265
19,CTGAGCCC,-0.174
20,ATCTCCTA,-0.115
21,AGGTCTCC,-0.229
22,CAATAGAA,0.00091
